Source: US11677091B2, “Use of quaternary ammonium salt-type anthraquinone-based active material and salt cavern organic aqueous redox flow battery” (CHINA SALT JINTAN CO., LTD., priority 2020, dated 2023)

Assay: Battery performance test, salt cavern organic aqueous redox flow battery, single battery stack
Conditions: current density 10 mA/cm^2; 0.5 mol/L catholyte; OH-TEMPO 0.5 mol/L anolyte; 2 mol/L NaCl; cation exchange membrane

Q: For `C[N+](C)(C)CCCOc1cccc2c1C(=O)c1c(OCCC[N+](C)(C)C)cccc1C2=O` [Embodiment 1], which Coulombic efficiency is on record?
A: 99%

Q: And the energy efficiency?
A: 88%

Q: What about the voltage efficiency of the same compound?
A: 88%
